Reference: paper doi:10.1101/205765
These are yes or no findings as the source states them, for the method shown. In cells and extracts the contact can be indirect. Some binding calls cover weakened binding; strength is not graded here.

Molecular target: Solanum tuberosum REMORIN group 1b homolog 3 (StREM1.3) (Solanum tuberosum) (UniProt P93788)
Assay: split reporter

- binding: binds
B1: Solanum tuberosum REMORIN group 1b homolog 3 (StREM1.3) (protein, UniProt P93788 1-198)
chain: MAELEAKKVEIVDPAPPAPGPVEAPKEVVADEKAIVAPALPPPAEEKEKPDDSKALVVVETKAPEPADEKKEGSIDRDAVLARVATEKRVSLIKAWEESEKSKAENKAQKKVSAIGAWENSKKANLEAELKKMEEQLEKKKAEYTEKMKNKIALLHKEAEEKRAMIEAKRGEDLLKAEELAAKYRATGTAPKKILGIF
